No constants are given. Whether binding was seen depends on the method and setting. In cells and extracts the contact can be indirect. A yes stands for co-enrichment or nearness to the bait. Other partners may have been found. Sequences can lack the tags named with a protein.

By UniProt entry, the sequences of proteins in these tests, tags left out.
UniProt O60216: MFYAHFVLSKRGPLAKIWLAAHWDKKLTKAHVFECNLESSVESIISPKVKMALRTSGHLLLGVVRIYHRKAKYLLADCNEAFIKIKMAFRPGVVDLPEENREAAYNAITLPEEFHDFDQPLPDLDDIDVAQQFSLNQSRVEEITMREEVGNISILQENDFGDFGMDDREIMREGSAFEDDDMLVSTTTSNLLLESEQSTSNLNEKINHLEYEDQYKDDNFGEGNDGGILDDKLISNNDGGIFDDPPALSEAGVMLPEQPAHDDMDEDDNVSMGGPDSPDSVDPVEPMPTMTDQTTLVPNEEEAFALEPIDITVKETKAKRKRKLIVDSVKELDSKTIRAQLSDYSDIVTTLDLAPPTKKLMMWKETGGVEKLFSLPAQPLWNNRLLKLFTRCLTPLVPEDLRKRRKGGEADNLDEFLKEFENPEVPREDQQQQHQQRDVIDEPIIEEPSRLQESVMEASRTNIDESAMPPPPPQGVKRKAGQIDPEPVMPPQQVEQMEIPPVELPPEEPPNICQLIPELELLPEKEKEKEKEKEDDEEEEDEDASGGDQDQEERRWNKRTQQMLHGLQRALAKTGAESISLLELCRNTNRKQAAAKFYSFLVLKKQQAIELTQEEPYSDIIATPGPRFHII
UniProt Q8N3U4: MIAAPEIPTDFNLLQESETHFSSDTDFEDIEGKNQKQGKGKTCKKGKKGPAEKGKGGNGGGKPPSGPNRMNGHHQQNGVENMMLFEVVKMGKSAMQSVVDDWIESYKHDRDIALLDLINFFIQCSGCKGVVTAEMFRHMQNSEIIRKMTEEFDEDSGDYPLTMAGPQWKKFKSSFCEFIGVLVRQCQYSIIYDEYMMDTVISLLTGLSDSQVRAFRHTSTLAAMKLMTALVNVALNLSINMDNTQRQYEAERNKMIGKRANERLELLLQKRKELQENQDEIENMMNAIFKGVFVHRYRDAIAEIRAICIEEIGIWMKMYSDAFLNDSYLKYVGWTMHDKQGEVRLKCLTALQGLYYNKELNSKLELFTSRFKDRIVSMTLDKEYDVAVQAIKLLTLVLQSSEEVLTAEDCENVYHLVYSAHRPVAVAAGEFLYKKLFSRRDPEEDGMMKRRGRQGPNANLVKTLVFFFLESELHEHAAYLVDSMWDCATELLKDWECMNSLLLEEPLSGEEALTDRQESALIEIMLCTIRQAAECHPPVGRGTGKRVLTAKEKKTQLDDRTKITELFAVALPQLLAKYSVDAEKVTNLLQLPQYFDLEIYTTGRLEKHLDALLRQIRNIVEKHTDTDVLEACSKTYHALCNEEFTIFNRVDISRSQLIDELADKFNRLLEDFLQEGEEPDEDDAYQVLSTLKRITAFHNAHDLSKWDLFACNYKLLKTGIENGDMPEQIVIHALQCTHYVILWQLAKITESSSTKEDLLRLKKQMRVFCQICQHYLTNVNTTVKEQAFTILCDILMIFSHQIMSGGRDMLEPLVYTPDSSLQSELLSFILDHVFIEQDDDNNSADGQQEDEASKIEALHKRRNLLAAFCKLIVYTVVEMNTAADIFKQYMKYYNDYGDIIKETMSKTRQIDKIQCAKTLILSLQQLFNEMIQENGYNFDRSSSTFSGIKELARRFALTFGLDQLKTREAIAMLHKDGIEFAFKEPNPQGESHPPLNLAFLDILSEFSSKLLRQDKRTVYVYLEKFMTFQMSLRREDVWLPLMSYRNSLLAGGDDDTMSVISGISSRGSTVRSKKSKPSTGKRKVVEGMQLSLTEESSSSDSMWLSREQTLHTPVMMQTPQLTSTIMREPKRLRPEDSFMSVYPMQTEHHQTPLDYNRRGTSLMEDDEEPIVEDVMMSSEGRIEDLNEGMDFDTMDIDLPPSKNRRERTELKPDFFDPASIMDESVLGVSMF
UniProt Q9UQE7: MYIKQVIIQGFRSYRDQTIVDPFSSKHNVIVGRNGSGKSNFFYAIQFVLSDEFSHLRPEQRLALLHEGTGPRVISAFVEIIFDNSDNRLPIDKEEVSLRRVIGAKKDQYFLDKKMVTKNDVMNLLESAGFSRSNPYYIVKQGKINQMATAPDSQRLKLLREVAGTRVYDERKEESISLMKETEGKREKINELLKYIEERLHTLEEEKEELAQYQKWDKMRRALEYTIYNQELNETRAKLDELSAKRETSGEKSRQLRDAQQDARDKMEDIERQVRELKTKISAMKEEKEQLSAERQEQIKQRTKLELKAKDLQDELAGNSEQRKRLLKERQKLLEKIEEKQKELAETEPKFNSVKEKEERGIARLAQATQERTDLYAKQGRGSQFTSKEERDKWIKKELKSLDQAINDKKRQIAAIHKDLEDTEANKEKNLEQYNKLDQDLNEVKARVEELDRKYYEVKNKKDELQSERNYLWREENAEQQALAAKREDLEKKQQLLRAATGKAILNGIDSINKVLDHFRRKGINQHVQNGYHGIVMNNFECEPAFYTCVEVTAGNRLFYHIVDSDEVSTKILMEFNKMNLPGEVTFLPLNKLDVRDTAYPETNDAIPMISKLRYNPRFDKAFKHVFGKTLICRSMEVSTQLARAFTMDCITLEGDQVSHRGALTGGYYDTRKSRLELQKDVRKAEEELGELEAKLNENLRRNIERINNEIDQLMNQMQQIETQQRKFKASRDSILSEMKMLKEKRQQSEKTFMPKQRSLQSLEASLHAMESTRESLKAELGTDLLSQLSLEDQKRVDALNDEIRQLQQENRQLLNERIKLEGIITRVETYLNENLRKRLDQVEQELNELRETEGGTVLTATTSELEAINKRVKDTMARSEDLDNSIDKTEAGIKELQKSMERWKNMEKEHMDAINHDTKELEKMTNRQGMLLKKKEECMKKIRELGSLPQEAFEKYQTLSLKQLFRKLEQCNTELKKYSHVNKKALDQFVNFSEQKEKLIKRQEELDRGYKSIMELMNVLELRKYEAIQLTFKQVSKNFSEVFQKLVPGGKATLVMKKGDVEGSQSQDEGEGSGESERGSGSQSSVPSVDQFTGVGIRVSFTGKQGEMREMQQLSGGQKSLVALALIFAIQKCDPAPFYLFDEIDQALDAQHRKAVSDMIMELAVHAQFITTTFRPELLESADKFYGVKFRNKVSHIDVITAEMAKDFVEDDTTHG
UniProt Q96FF9: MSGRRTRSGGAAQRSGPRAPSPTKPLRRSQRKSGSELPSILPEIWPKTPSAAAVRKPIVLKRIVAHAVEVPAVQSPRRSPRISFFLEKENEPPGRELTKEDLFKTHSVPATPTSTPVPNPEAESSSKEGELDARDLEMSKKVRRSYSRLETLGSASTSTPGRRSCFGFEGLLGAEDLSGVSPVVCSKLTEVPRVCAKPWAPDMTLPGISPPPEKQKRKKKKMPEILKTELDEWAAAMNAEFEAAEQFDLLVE

The test concerns the target T1, Myc-Pds5B (UniProt Q9NTI5).
T1 sequence: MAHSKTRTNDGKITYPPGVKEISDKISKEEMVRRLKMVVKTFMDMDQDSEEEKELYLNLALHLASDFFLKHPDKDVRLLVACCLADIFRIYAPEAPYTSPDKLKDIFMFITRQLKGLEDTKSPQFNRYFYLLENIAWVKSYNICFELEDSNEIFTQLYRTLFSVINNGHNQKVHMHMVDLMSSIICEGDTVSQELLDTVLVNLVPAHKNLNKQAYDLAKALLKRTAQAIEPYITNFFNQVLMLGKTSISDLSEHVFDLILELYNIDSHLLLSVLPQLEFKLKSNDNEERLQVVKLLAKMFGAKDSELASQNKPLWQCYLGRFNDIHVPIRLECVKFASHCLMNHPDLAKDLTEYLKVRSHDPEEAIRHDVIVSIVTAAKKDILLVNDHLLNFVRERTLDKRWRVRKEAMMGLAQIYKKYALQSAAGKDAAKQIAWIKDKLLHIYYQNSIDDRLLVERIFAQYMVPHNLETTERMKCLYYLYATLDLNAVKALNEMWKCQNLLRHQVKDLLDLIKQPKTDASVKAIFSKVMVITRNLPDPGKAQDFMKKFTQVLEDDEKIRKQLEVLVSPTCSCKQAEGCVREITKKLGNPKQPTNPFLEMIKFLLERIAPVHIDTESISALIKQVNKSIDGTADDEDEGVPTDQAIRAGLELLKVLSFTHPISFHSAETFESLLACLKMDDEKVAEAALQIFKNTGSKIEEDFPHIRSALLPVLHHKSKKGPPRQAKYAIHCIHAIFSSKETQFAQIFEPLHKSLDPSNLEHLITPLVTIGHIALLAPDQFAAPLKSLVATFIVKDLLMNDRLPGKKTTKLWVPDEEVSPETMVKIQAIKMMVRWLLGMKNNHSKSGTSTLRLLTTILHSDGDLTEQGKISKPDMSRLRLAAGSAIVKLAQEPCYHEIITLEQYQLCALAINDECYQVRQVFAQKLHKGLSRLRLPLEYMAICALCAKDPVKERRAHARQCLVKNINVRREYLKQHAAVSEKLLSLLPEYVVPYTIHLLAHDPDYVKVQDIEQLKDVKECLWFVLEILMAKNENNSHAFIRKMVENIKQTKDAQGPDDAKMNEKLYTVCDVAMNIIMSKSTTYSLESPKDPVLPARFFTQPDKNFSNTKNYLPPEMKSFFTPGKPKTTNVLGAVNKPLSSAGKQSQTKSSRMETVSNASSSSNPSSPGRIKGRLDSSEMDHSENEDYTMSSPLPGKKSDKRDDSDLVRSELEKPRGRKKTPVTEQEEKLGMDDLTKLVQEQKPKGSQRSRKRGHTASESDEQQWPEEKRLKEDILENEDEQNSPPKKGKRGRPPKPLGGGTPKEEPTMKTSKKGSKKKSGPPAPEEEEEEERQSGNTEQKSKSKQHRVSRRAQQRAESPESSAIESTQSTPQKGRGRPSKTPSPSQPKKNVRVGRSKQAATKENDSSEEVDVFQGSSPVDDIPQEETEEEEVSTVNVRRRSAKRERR
Briefly: affinity purification with mass spectrometry; Myc-Pds5B immunoprecipitated from HEK-293T cells with anti-Myc beads, control IgG beside it; bands cut from SDS-PAGE, trypsin, Orbitrap Exploris 480.

Regarding “endogenous RAD21 (HEK-293T) (from UniProt O60216 1-631)”, the binding result is “binds”. Regarding “endogenous SA2 (HEK-293T) (from UniProt Q8N3U4 1-1231)”, the binding result is “binds”. As for “endogenous SMC3 (HEK-293T) (from UniProt Q9UQE7 1-1217)”, the binding result is recorded as “binds”. As for “endogenous Sororin (HEK-293T) (from UniProt Q96FF9 1-252)”, the binding result is on record as “binds”.

B1: endogenous SMC1A (HEK-293T) (protein, UniProt Q14683 1-1233)
chain: MGFLKLIEIENFKSYKGRQIIGPFQRFTAIIGPNGSGKSNLMDAISFVLGEKTSNLRVKTLRDLIHGAPVGKPAANRAFVSMVYSEEGAEDRTFARVIVGGSSEYKINNKVVQLHEYSEELEKLGILIKARNFLVFQGAVESIAMKNPKERTALFEEISRSGELAQEYDKRKKEMVKAEEDTQFNYHRKKNIAAERKEAKQEKEEADRYQRLKDEVVRAQVQLQLFKLYHNEVEIEKLNKELASKNKEIEKDKKRMDKVEDELKEKKKELGKMMREQQQIEKEIKEKDSELNQKRPQYIKAKENTSHKIKKLEAAKKSLQNAQKHYKKRKGDMDELEKEMLSVEKARQEFEERMEEESQSQGRDLTLEENQVKKYHRLKEEASKRAATLAQELEKFNRDQKADQDRLDLEERKKVETEAKIKQKLREIEENQKRIEKLEEYITTSKQSLEEQKKLEGELTEEVEMAKRRIDEINKELNQVMEQLGDARIDRQESSRQQRKAEIMESIKRLYPGSVYGRLIDLCQPTQKKYQIAVTKVLGKNMDAIIVDSEKTGRDCIQYIKEQRGEPETFLPLDYLEVKPTDEKLRELKGAKLVIDVIRYEPPHIKKALQYACGNALVCDNVEDARRIAFGGHQRHKTVALDGTLFQKSGVISGGASDLKAKARRWDEKAVDKLKEKKERLTEELKEQMKAKRKEAELRQVQSQAHGLQMRLKYSQSDLEQTKTRHLALNLQEKSKLESELANFGPRINDIKRIIQSREREMKDLKEKMNQVEDEVFEEFCREIGVRNIREFEEEKVKRQNEIAKKRLEFENQKTRLGIQLDFEKNQLKEDQDKVHMWEQTVKKDENEIEKLKKEEQRHMKIIDETMAQLQDLKNQHLAKKSEVNDKNHEMEEIRKKLGGANKEMTHLQKEVTAIETKLEQKRSDRHNLLQACKMQDIKLPLSKGTMDDISQEEGSSQGEDSVSGSQRISSIYAREALIEIDYGDLCEDLKDAQAEEEIKQEMNTLQQKLNEQQSVLQRIAAPNMKAMEKLESVRDKFQETSDEFEAARKRAKKAKQAFEQIKKERFDRFNACFESVATNIDEIYKALSRNSSAQAFLGPENPEEPYLDGINYNCVAPGKRFRPMDNLSGGEKTVAALALLFAIHSYKPAPFFVLDEIDAALDNTNIGKVANYIKEQSTCNFQAIVISLKEEFYTKAESLIGVYPEQGDCVISKVLTFDLTKYPDANPNPNEQ
For the molecule B1, the binding result was “binds”.

B2: endogenous Wapl (HEK-293T) (protein, UniProt Q7Z5K2 1-1190)
chain: MTSRFGKTYSRKGGNGSSKFDEVFSNKRTTLSTKWGETTFMAKLGQKRPNFKPDIQEIPKKPKVEEESTGDPFGFDSDDESLPVSSKNLAQVKCSSYSESSEAAQLEEVTSVLEANSKISHVVVEDTVVSDKCFPLEDTLLGKEKSTNRIVEDDASISSCNKLITSDKVENFHEEHEKNSHHIHKNADDSTKKPNAETTVASEIKETNDTWNSQFGKRPESPSEISPIKGSVRTGLFEWDNDFEDIRSEDCILSLDSDPLLEMKDDDFKNRLENLNEAIEEDIVQSVLRPTNCRTYCRANKTKSSQGASNFDKLMDGTSQALAKANSESSKDGLNQAKKGGVSCGTSFRGTVGRTRDYTVLHPSCLSVCNVTIQDTMERSMDEFTASTPADLGEAGRLRKKADIATSKTTTRFRPSNTKSKKDVKLEFFGFEDHETGGDEGGSGSSNYKIKYFGFDDLSESEDDEDDDCQVERKTSKKRTKTAPSPSLQPPPESNDNSQDSQSGTNNAENLDFTEDLPGVPESVKKPINKQGDKSKENTRKIFSGPKRSPTKAVYNARHWNHPDSEELPGPPVVKPQSVTVRLSSKEPNQKDDGVFKAPAPPSKVIKTVTIPTQPYQDIVTALKCRREDKELYTVVQHVKHFNDVVEFGENQEFTDDIEYLLSGLKSTQPLNTRCLSVISLATKCAMPSFRMHLRAHGMVAMVFKTLDDSQHHQNLSLCTAALMYILSRDRLNMDLDRASLDLMIRLLELEQDASSAKLLNEKDMNKIKEKIRRLCETVHNKHLDLENITTGHLAMETLLSLTSKRAGDWFKEELRLLGGLDHIVDKVKECVDHLSRDEDEEKLVASLWGAERCLRVLESVTVHNPENQSYLIAYKDSQLIVSSAKALQHCEELIQQYNRAEDSICLADSKPLPHQNVTNHVGKAVEDCMRAIIGVLLNLTNDNEWGSTKTGEQDGLIGTALNCVLQVPKYLPQEQRFDIRVLGLGLLINLVEYSARNRHCLVNMETSCSFDSSICSGEGDDSLRIGGQVHAVQALVQLFLERERAAQLAESKTDELIKDAPTTQHDKSGEWQETSGEIQWVSTEKTDGTEEKHKKEEEDEELDLNKALQHAGKHMEDCIVASYTALLLGCLCQESPINVTTVREYLPEGDFSIMTEMLKKFLSFMNLTCAVGTTGQKSISRVIEYLEHC
In the case of B2, the binding result is recorded as “binds”.

B3: endogenous SA1 (HEK-293T) (protein, UniProt Q8WVM7 1-1258)
chain: MITSELPVLQDSTNETTAHSDAGSELEETEVKGKRKRGRPGRPPSTNKKPRKSPGEKSRIEAGIRGAGRGRANGHPQQNGEGEPVTLFEVVKLGKSAMQSVVDDWIESYKQDRDIALLDLINFFIQCSGCRGTVRIEMFRNMQNAEIIRKMTEEFDEDSGDYPLTMPGPQWKKFRSNFCEFIGVLIRQCQYSIIYDEYMMDTVISLLTGLSDSQVRAFRHTSTLAAMKLMTALVNVALNLSIHQDNTQRQYEAERNKMIGKRANERLELLLQKRKELQENQDEIENMMNSIFKGIFVHRYRDAIAEIRAICIEEIGVWMKMYSDAFLNDSYLKYVGWTLHDRQGEVRLKCLKALQSLYTNRELFPKLELFTNRFKDRIVSMTLDKEYDVAVEAIRLVTLILHGSEEALSNEDCENVYHLVYSAHRPVAVAAGEFLHKKLFSRHDPQAEEALAKRRGRNSPNGNLIRMLVLFFLESELHEHAAYLVDSLWESSQELLKDWECMTELLLEEPVQGEEAMSDRQESALIELMVCTIRQAAEAHPPVGRGTGKRVLTAKERKTQIDDRNKLTEHFIITLPMLLSKYSADAEKVANLLQIPQYFDLEIYSTGRMEKHLDALLKQIKFVVEKHVESDVLEACSKTYSILCSEEYTIQNRVDIARSQLIDEFVDRFNHSVEDLLQEGEEADDDDIYNVLSTLKRLTSFHNAHDLTKWDLFGNCYRLLKTGIEHGAMPEQIVVQALQCSHYSILWQLVKITDGSPSKEDLLVLRKTVKSFLAVCQQCLSNVNTPVKEQAFMLLCDLLMIFSHQLMTGGREGLQPLVFNPDTGLQSELLSFVMDHVFIDQDEENQSMEGDEEDEANKIEALHKRRNLLAAFSKLIIYDIVDMHAAADIFKHYMKYYNDYGDIIKETLSKTRQIDKIQCAKTLILSLQQLFNELVQEQGPNLDRTSAHVSGIKELARRFALTFGLDQIKTREAVATLHKDGIEFAFKYQNQKGQEYPPPNLAFLEVLSEFSSKLLRQDKKTVHSYLEKFLTEQMMERREDVWLPLISYRNSLVTGGEDDRMSVNSGSSSSKTSSVRNKKGRPPLHKKRVEDESLDNTWLNRTDTMIQTPGPLPAPQLTSTVLRENSRPMGDQIQEPESEHGSEPDFLHNPQMQISWLGQPKLEDLNRKDRTGMNYMKVRTGVRHAVRGLMEEDAEPIFEDVMMSSRSQLEDMNEEFEDTMVIDLPPSRNRRERAELRPDFFDSAAIIEDDSGFGMPMF
In the case of B3, the binding result is on record as “binds”.
